{"sequences": {"note": "Amino acid sequences for entries named in this document (tags omitted). A change or cut given only in a name is not applied to a line headed by its entry.", "UniProt P46821": "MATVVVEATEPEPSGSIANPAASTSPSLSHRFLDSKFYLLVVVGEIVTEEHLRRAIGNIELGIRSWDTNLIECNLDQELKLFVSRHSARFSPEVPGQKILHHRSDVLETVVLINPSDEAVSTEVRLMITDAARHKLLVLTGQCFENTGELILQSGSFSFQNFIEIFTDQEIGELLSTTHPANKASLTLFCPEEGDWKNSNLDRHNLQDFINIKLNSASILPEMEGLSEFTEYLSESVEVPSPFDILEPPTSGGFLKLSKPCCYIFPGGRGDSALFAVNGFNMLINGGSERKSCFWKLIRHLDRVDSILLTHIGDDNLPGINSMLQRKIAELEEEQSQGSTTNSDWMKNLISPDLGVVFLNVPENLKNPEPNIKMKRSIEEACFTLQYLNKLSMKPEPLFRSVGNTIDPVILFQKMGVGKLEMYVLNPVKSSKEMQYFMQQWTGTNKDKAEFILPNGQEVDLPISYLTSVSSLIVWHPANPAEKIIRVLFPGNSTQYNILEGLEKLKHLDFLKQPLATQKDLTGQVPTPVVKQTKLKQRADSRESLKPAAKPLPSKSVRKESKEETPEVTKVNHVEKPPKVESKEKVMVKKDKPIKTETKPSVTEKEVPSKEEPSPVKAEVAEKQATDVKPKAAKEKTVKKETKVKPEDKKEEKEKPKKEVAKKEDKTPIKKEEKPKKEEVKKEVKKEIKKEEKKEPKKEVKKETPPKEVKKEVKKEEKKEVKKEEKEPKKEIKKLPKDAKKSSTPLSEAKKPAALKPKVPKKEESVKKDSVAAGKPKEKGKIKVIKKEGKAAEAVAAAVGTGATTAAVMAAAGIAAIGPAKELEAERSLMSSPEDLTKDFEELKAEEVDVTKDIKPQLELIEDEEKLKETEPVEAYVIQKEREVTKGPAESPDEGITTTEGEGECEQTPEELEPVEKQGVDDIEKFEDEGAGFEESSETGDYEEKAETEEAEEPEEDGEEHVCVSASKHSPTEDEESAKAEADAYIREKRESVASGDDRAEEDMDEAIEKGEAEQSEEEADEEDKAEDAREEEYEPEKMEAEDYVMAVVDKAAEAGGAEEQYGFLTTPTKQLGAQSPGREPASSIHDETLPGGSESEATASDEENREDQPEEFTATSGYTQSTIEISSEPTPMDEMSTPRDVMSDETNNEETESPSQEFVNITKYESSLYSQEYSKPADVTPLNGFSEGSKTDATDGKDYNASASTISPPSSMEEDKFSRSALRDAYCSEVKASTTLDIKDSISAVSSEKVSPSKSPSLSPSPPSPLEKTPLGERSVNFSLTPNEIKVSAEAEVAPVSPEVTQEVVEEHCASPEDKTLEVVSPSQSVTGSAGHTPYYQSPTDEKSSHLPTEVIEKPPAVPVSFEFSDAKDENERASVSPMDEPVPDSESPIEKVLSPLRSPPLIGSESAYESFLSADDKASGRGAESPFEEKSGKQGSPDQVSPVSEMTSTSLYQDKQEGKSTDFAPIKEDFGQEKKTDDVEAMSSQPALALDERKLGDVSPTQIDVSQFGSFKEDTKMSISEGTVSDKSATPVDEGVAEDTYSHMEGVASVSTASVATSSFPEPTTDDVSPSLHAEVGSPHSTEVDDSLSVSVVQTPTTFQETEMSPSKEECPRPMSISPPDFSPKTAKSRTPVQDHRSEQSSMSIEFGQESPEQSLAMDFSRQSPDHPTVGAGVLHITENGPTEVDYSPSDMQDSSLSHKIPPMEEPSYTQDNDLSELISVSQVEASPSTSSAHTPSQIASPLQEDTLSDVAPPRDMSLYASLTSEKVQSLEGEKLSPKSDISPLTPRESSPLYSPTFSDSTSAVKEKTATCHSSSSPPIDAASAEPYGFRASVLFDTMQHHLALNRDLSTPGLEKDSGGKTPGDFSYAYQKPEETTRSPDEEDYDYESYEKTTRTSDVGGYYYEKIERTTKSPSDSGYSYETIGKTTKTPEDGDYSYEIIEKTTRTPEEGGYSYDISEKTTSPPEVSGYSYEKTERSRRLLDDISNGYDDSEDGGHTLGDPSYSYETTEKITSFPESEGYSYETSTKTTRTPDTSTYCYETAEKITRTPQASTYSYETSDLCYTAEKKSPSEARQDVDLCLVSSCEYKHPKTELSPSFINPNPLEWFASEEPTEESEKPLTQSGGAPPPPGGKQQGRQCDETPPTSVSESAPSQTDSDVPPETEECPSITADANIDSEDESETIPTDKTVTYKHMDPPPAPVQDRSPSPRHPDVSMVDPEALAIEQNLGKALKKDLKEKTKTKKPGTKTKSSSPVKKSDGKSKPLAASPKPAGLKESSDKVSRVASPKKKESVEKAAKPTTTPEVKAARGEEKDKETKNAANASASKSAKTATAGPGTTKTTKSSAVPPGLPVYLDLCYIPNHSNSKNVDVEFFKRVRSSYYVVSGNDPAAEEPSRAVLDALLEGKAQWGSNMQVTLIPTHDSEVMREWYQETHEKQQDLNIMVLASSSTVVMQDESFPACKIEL"}, "source": "paper PMC6731588", "molecular_target": "heterogeneous nuclear ribonucleoprotein K (human (endogenous in A549)) (UniProt P61978)", "assay": "affinity purification with mass spectrometry; A549 cell lysate (1 mg) immunoprecipitated with anti-hnRNP K antibody or isotype matched IgG, Protein A/G Plus-agarose, 4 °C; SDS-PAGE, silver staining, bands cut out, in-gel digestion, LC-MS/MS", "note": "No constants are given. Whether binding was seen depends on the method and setting. In cells and extracts the contact can be indirect. A yes stands for co-enrichment or nearness to the bait. Other partners may have been found.", "data": [{"substance": "microtubule-associated protein 1B light chain (MAP 1B-LC1) (from UniProt P46821)", "values": [{"measurement": "binding", "value": "binds"}]}]}
